PubChem BioAssay AID686937 | Drosophila RNAi Screening Center, 2013

Aim: 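Genes in the fly needed for secretion of protein constitutively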 (primary screen)
Cells: Drosophila S2 cells expressing secreted horseradish peroxidase
Reagents: long dsRNA against Drosophila genes
Duration: about 5.5 days (5 days dsRNA, then 12 h reporter induction)
Treatment: reporter expression induced after 5 days of dsRNA, read 12 h later; inducer not stated
Detection: 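After 5 days of dsRNA and 12 h of reporter induction, medium peroxidase read by chemiluminescence and scored as per-plate z-score; higher values mean more reporter released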
Reading the numbers: z-score: higher = more reporter secreted into medium
In all, the deposit lists about 23,000 reagents; shown is an unselected part of those that have a named target and a result. 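Reduced-secretion tags in replicate 1 do not always agree with the z-scores; no criterion for assigning the tags was given.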 The numbers tell different reagents against one gene apart. A plus sign joins genes that one reagent is predicted to hit. Reagent sequences are not shown. Not stated in the record: the amount of reagent.

predicted target	reagent	z-score, replicate 1	z-score, replicate 2	z-score, replicate 3	z-score, replicate 4	phenotype, replicate 1
Ppt1 (Palmitoyl-protein thioesterase 1)	1	0.27	0.42			
sno (strawberry notch)	1	0.52	0.61			
Sytbeta (Synaptotagmin beta)	1	0.37	0.3			
Sytbeta (Synaptotagmin beta)	2	0.3	0.4			
CG43095	1	-0.03	0.37			
dsx-c73A (doublesex cognate 73A)	1	0.02	0.13			
dsx-c73A (doublesex cognate 73A)	2	0.48	0.38			
dsx-c73A (doublesex cognate 73A)	3	0.39	0.31			
PKD (Protein Kinase D)	1	0.35	0.26			
Polr2G (RNA polymerase II subunit G)	1	-4.88	-4.55			reduced secretion
Ntmt (N-terminal methyltransferase)	1	0.19	0.38			
br (broad)	1	0.73	0.78			
br (broad)	2	0	0.14			
br (broad)	3	-0.41	-0.97	-0.49	-0.54	
br (broad)	4	-0.83	-0.37			
Arpc3B (Actin-related protein 2/3 complex, subunit 3B)	1	-0.8	-1.95			
flfl (falafel)	1	0.52	0.74			
Debcl (Death executioner Bcl-2)	1	0.22	0.28			
CG5050	1	0.17	0.39			
Plc21C (Phospholipase C at 21C)	1	0.43	0.5			
Src64B (Src oncogene at 64B)	1	0.28	0.3			
CG43125	1	0.24	-0.04			
Ing3 (Inhibitor of growth family, member 3)	1	-4.21	0.4	0.42	-4.54	
CG7907	1	0.22	0.32			
Adgf-C (Adenosine deaminase-related growth factor C)	1	0.15	-0.07			
CG15577	1	0.23	-0.14			
her (hermaphrodite)	1	-0.1	0.12			
CG42715 (retired record)	1	-0.3	-0.08			
CG43182	1	0.06	-0.13			
CG14834	1	0.2	0.31			
CG33308	1	-0.15	0.04			
COX4 (Cytochrome c oxidase subunit 4)	1	-0.42	-0.97			
SoxN (SoxNeuro)	1	-0.12	0.37	0.24	0.16	
SoxN (SoxNeuro)	2	0.12	-0.56			
CG9855	1	0.19	0.04	0.15	0.07	
His3.3B (Histone H3.3B)	1	0.38	0.79			
His3.3B (Histone H3.3B)	2	0.2	-0.22			
ple (pale)	1	-0.08	-0.12			
CG11155	1	0.82	0.24			
CG11155	2	0.41	0.2			
CG12121	1	0.49	0.45			
asRNA:CR43433 + Rbp6	1	0.68	0.54			
Fkbp12 (FK506-binding protein 12kD)	1	0.09	0.09			
plx (pollux)	1	0.23	0.07			
plx (pollux)	2	-1.24	0.39	0.44	-0.63	
plx (pollux)	3	-1.33	-0.87			reduced secretion
Roc1b + Cdc5	1	-0.8	-0.64			
mRpL50 (mitochondrial ribosomal protein L50)	1	0.41	0.4	-0.21	0.28	
Sply (Sphingosine-1-phosphate lyase)	1	-1.57	0.72			
tacc (transforming acidic coiled-coil protein)	1	0.58	0.48			
tacc (transforming acidic coiled-coil protein)	2	0.14	0.24	-0.01	0.47	
CG8924	1	-0.02	0.04			
CG43341	1	0.93				
Surf1 (Surfeit 1)	1	-0.22	-0.18			
Surf1 (Surfeit 1)	2	-0.02	0.28			
Sodh2 (Sorbitol dehydrogenase 2)	1	0.29	0.65			
unc-104 (uncoordinated-104)	1	0.44	0.48			
CG7031	1	-2.56	-1.95			reduced secretion
wda (will decrease acetylation)	1	0.63	0.29	0.38	0.29	
wda (will decrease acetylation)	2	-0.12	0.36			
PAN3 (Poly(A) specific ribonuclease subunit PAN3)	1	0.54	0.23			
CG5961	1	0.43	0.43			
CCHa2 (CCHamide-2)	1	0.56	0.35	0.61	0.25	
E(spl)mdelta-HLH (Enhancer of split mdelta, helix-loop-helix)	1	0.48	0.35			
CG3817	1	0.44	0.12			
peg (pegasus)	1	0.01	-0.04			
CG10702	1	0.31	0.28			
Ir56d (Ionotropic receptor 56d)	1	0.14	0.08			
CG9300	1	0.13	-0.53			
mRNA-cap (mRNA-capping-enzyme)	1	-2.56	-5.26			reduced secretion
AGO1 (Argonaute-1)	1	-1.52	-1.44			reduced secretion
Nnp-1	1	0.22	-0.31			
CG9951	1	0.14	0.29			
Gfat2 (Glutamine:fructose-6-phosphate aminotransferase 2)	1	-0.13	-0.07			
mAcon2 (Mitochondrial aconitase 2)	1	0.45	0.56			
Srlp (Spliceosome-ribosome linker protein)	1	-3.78	-3.67			reduced secretion
Ran-like	1	0.26	0.35			
pnt (pointed)	1	-2.58	-3.22			reduced secretion
fog (folded gastrulation)	1	0.34	0.44			
CG7910	1	0.32	0.3			
sna (snail)	1	-0.36	0.25			
Cipc (Clock interacting protein circadian)	1	0.28	0.61			
Cipc (Clock interacting protein circadian)	2	0.4	0.4			
